# Experimental data published in paper PMC8384837.
# Positions count from the first letter of the chain named. The list shows a part of the results.
# Legend:
# Conditions in all cases: yeast three-hybrid, YBZ-1, SC-Leu-His + 0.5 mM 3-AT, 4 days
# [1] = target: T1, PUM1 PUF domain R3-FCL C935F + R936C + Q939L (Homo sapiens) (UniProt Q14671)
# T1 sequence: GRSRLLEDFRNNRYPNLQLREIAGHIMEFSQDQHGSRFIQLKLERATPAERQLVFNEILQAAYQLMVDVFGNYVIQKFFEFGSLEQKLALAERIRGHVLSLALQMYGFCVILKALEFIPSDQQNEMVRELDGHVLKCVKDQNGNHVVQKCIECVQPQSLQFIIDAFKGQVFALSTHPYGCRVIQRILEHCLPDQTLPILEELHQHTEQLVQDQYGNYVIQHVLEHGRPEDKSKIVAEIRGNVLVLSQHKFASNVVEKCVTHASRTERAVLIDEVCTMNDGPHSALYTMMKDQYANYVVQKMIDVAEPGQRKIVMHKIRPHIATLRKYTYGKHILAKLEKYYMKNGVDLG
# [2] = target: T2, PUM1 PUF domain R3-FCS C935F + R936C + Q939S (Homo sapiens) (UniProt Q14671)
# T2 sequence: T1 sequence with L112S
# [3] = target: T3, PUM1 PUF domain R3-FRG C935F + Q939G (Homo sapiens) (UniProt Q14671)
# T3 sequence: T1 sequence with C109R, L112G
# [4] = target: T4, PUM1 PUF domain R3-FRP C935F + Q939P (Homo sapiens) (UniProt Q14671)
# T4 sequence: T1 sequence with C109R, L112P
# [5] = target: T5, PUM1 PUF domain R3-GCE C935G + R936C + Q939E (Homo sapiens) (UniProt Q14671)
# T5 sequence: T1 sequence with F108G, L112E
# [6] = target: T6, PUM1 PUF domain R3-GRR C935G + Q939R (Homo sapiens) (UniProt Q14671)
# T6 sequence: T1 sequence with F108G, C109R, L112R
# [7] = target: T7, PUM1 PUF domain R3-KSG C935K + R936S + Q939G (Homo sapiens) (UniProt Q14671)
# T7 sequence: T1 sequence with F108K, C109S, L112G
# [8] = target: T8, PUM1 PUF domain R3-LFT C935L + R936F + Q939T (Homo sapiens) (UniProt Q14671)
# T8 sequence: T1 sequence with F108L, C109F, L112T
# [9] = target: T9, PUM1 PUF domain R3-LSK C935L + R936S + Q939K (Homo sapiens) (UniProt Q14671)
# T9 sequence: T1 sequence with F108L, C109S, L112K
# [10] = target: T10, PUM1 PUF domain R3-QRR C935Q + Q939R (Homo sapiens) (UniProt Q14671)
# T10 sequence: T1 sequence with F108Q, C109R, L112R
# [11] = target: T11, PUM1 PUF domain R3-RAQ C935R + R936A (Homo sapiens) (UniProt Q14671)
# T11 sequence: T1 sequence with F108R, C109A, L112Q
# [12] = target: T12, PUM1 PUF domain R3-RAS C935R + R936A + Q939S (Homo sapiens) (UniProt Q14671)
# T12 sequence: T1 sequence with F108R, C109A, L112S
# [13] = target: T13, PUM1 PUF domain R3-RPG C935R + R936P + Q939G (Homo sapiens) (UniProt Q14671)
# T13 sequence: T1 sequence with F108R, C109P, L112G
# [14] = target: T14, PUM1 PUF domain R3-RPV C935R + R936P + Q939V (Homo sapiens) (UniProt Q14671)
# T14 sequence: T1 sequence with F108R, C109P, L112V
# [15] = target: T15, PUM1 PUF domain R3-RSA C935R + R936S + Q939A (Homo sapiens) (UniProt Q14671)
# T15 sequence: T1 sequence with F108R, C109S, L112A
# [16] = target: T16, PUM1 PUF domain R3-SNR C935S + R936N + Q939R (Homo sapiens) (UniProt Q14671)
# T16 sequence: T1 sequence with F108S, C109N, L112R
# [17] = target: T17, PUM1 PUF domain R3-VCK C935V + R936C + Q939K (Homo sapiens) (UniProt Q14671)
# T17 sequence: T1 sequence with F108V, L112K
# [18] = target: T18, PUM1 PUF domain R3-VSK C935V + R936S + Q939K (Homo sapiens) (UniProt Q14671)
# T18 sequence: T1 sequence with F108V, C109S, L112K
# [19] = target: T19, PUM1 PUF domain R3-WAR C935W + R936A + Q939R (Homo sapiens) (UniProt Q14671)
# T19 sequence: T1 sequence with F108W, C109A, L112R
# [20] = target: T20, PUM1 PUF domain R3-YRC C935Y + Q939C (Homo sapiens) (UniProt Q14671)
# T20 sequence: T1 sequence with F108Y, C109R, L112C
sequence,measurement,setting,value
GGCUAGAACUAGUGGAUCCCCCGGCGCCCGGCGGCUCGAGCCCGGGUAAGUGUAAAUAGUCUGCAUGCCGCCGGGCGCCAUGCCUGCAGGUCGACUCUAGAAAACAUG,binding signal (log2 enrichment (interaction score)),[1],-0.45
same,binding signal (log2 enrichment (interaction score)),[2],-0.92
same,binding signal (log2 enrichment (interaction score)),[3],-0.78
same,binding signal (log2 enrichment (interaction score)),[4],-2.24
same,binding signal (log2 enrichment (interaction score)),[5],-1.49
same,binding signal (log2 enrichment (interaction score)),[6],-1.72
same,binding signal (log2 enrichment (interaction score)),[7],-1.22
same,binding signal (log2 enrichment (interaction score)),[8],-0.04
same,binding signal (log2 enrichment (interaction score)),[9],-0.34
same,binding signal (log2 enrichment (interaction score)),[10],-0.02
same,binding signal (log2 enrichment (interaction score)),[11],-0.41
same,binding signal (log2 enrichment (interaction score)),[12],-1.9
same,binding signal (log2 enrichment (interaction score)),[13],-1.29
same,binding signal (log2 enrichment (interaction score)),[14],-0.29
same,binding signal (log2 enrichment (interaction score)),[15],-1.65
same,binding signal (log2 enrichment (interaction score)),[16],-0.14
same,binding signal (log2 enrichment (interaction score)),[17],-0.45
same,binding signal (log2 enrichment (interaction score)),[18],-1.02
same,binding signal (log2 enrichment (interaction score)),[19],-0.29
same,binding signal (log2 enrichment (interaction score)),[20],-0.21

# Quoted at random: 2 records from the list, in no set order.
sequence,measurement,setting,value
GGCUAGAACUAGUGGAUCCCCCGGCGCCCGGCGGCUCGAGCCCGGGUAAGUGUAAAUAGUCUGCAUGCCGCCGGGCGCCAUGCCUGCAGGUCGACUCUAGAAAACAUG,binding signal (log2 enrichment (interaction score)),[4],-2.24
same,binding signal (log2 enrichment (interaction score)),[5],-1.49
